PubChem BioAssay AID686938 | Drosophila RNAi Screening Center, 2013
In all, the deposit lists about 23,000 reagents; this is a random part of those with a known target gene and a result. In the full data, 75 (0.33%) got an active call. 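Raw plate signals without normalisation; calls rest on plate z-scores that were not deposited; ratio present for only 364 wells.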 Reagents against one gene are numbered here. A plus sign joins genes that one reagent is predicted to hit. The record does not give: the dose of the treatment.

Test: 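Looking for CRAC channel components and the factors controlling them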 (primary screen)
System: Drosophila S2R+ cells
Reagents: long dsRNA against Drosophila genes, about 0.25 µg dsRNA per well, roughly 10,000 cells
Duration: 5 days of knock-down before the calcium assay
Conditions: thapsigargin (SERCA pump blocker) to empty calcium stores; entry signal taken 4 min after adding it
Measurement: 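Per-well fluo-4 fluorescence in two replicates, unnormalised, measured in resting cells and 4 min after store depletion by the SERCA blocker thapsigargin; ratio of the two present in few wells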
Scale: calcium entry signal: higher = stronger calcium signal after store depletion; resting calcium signal: higher = higher resting calcium signal
Units: calcium entry signal in fluorescence units; resting calcium signal in fluorescence units
Call rule: 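Hit if the duplicate-averaged plate z-score for entry over resting signal is under −3; wells with weak total dye signal (Fmax z < −2) or more than 5 off-targets removed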
Meaning of the calls: active = strongly reduced calcium entry; inactive = no strong reduction

CG9304 (GeneID 37500) | calcium entry signal, replicate 1: 4.86e7; calcium entry signal, replicate 2: 4.86e7; resting calcium signal, replicate 1: 2.45e7; resting calcium signal, replicate 2: 2.30e7; Call: inactive
CG4928 (GeneID 32682) | calcium entry signal, replicate 1: 2.88e7; calcium entry signal, replicate 2: 2.58e7; resting calcium signal, replicate 1: 1.39e7; resting calcium signal, replicate 2: 1.26e7; Call: inactive
p23 (GeneID 41173) | calcium entry signal, replicate 1: 3.65e7; calcium entry signal, replicate 2: 5.08e7; resting calcium signal, replicate 1: 1.62e7; resting calcium signal, replicate 2: 2.21e7; Call: inactive
CG18004 (GeneID 36154) | calcium entry signal, replicate 1: 4.98e7; calcium entry signal, replicate 2: 4.35e7; resting calcium signal, replicate 1: 2.03e7; resting calcium signal, replicate 2: 1.77e7; Call: inactive
RpL41 (GeneID 251466) | calcium entry signal, replicate 1: 3.16e7; calcium entry signal, replicate 2: 3.20e7; resting calcium signal, replicate 1: 1.52e7; resting calcium signal, replicate 2: 1.44e7; Call: inactive
CG4496 (GeneID 34000) | calcium entry signal, replicate 1: 3.63e7; calcium entry signal, replicate 2: 3.81e7; resting calcium signal, replicate 1: 1.80e7; resting calcium signal, replicate 2: 1.82e7; Call: inactive
CG30334 (GeneID 246545) | calcium entry signal, replicate 1: 2.85e7; calcium entry signal, replicate 2: 5.54e7; resting calcium signal, replicate 1: 1.42e7; resting calcium signal, replicate 2: 2.37e7; Call: inactive
Ir56b (GeneID 37250) | calcium entry signal, replicate 1: 4.67e7; calcium entry signal, replicate 2: 5.94e7; resting calcium signal, replicate 1: 2.11e7; resting calcium signal, replicate 2: 2.65e7; Call: inactive
CG12237 (GeneID 32967) #1 | calcium entry signal, replicate 1: 3.91e7; calcium entry signal, replicate 2: 7.81e7; resting calcium signal, replicate 1: 1.87e7; resting calcium signal, replicate 2: 2.92e7; Call: inactive
CG12237 (GeneID 32967) #2 | calcium entry signal, replicate 1: 1.97e7; calcium entry signal, replicate 2: 2.63e7; resting calcium signal, replicate 1: 1.02e7; resting calcium signal, replicate 2: 1.34e7; Call: inactive
CG8526 (GeneID 41208) | calcium entry signal, replicate 1: 3.21e7; calcium entry signal, replicate 2: 2.95e7; resting calcium signal, replicate 1: 1.65e7; resting calcium signal, replicate 2: 1.47e7; Call: inactive
CG3726 (GeneID 31525) #1 | calcium entry signal, replicate 1: 3.36e7; calcium entry signal, replicate 2: 8.41e7; resting calcium signal, replicate 1: 1.64e7; resting calcium signal, replicate 2: 3.61e7; Call: inactive
CG3726 (GeneID 31525) #2 | calcium entry signal, replicate 1: 4.10e7; calcium entry signal, replicate 2: 4.92e7; resting calcium signal, replicate 1: 1.88e7; resting calcium signal, replicate 2: 2.17e7; Call: inactive
ImpL2 (GeneID 38513) | calcium entry signal, replicate 1: 4.71e7; calcium entry signal, replicate 2: 3.84e7; resting calcium signal, replicate 1: 3.10e7; resting calcium signal, replicate 2: 1.50e7; Call: inactive
scpr-A + scpr-C + scpr-B | calcium entry signal, replicate 1: 3.70e7; calcium entry signal, replicate 2: 2.38e7; resting calcium signal, replicate 1: 1.88e7; resting calcium signal, replicate 2: 1.33e7; Call: inactive
CG7953 (GeneID 34801) | calcium entry signal, replicate 1: 4.01e7; resting calcium signal, replicate 1: 1.87e7; Call: inactive
ine (GeneID 33659) | calcium entry signal, replicate 1: 3.36e7; resting calcium signal, replicate 1: 1.65e7; Call: inactive
Ent3 (GeneID 39461) | calcium entry signal, replicate 1: 5.88e7; calcium entry signal, replicate 2: 4.72e7; resting calcium signal, replicate 1: 3.93e7; resting calcium signal, replicate 2: 2.01e7; Call: inactive
CG8840 (GeneID 33557) | calcium entry signal, replicate 1: 3.38e7; calcium entry signal, replicate 2: 3.26e7; resting calcium signal, replicate 1: 1.70e7; resting calcium signal, replicate 2: 1.51e7; Call: inactive
Rpi (GeneID 246599) | calcium entry signal, replicate 1: 3.55e7; calcium entry signal, replicate 2: 3.31e7; resting calcium signal, replicate 1: 1.90e7; resting calcium signal, replicate 2: 1.59e7; Call: inactive
Uvrag (GeneID 34735) | calcium entry signal, replicate 1: 4.21e7; resting calcium signal, replicate 1: 2.23e7; Call: inactive

As entered above.
Entry for Ent3 (GeneID 39461) in “calcium entry signal, replicate 1”: 5.88e7
CG3726 (GeneID 31525) #1, Call → inactive
